PubChem BioAssay AID504793 – Drosophila RNAi Screening Center | 2011
The screen tested about 23,000 reagents; this is an unselected part of those with a known target gene and a result. In the full data, 62 (0.27%) were called active. 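Calls come from follow-up tests whose scores are not deposited, so confirmed genes may have low counts here; counts are not normalised per plate.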 Raw values are not corrected between plates. A plus sign joins genes that one reagent is predicted to hit. Reagent sequences are not shown.

Purpose: 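Genes required for cells to halt at G2/M after double-strand DNA breaks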 (primary screen)
System: Drosophila S2R+ cells
Reagents: long dsRNA against Drosophila genes, about 0.25 µg dsRNA per well
Duration: 4 days of dsRNA, then 4 hours of drug before read-out
Conditions: doxorubicin 0.5 µM for 4 hours to cause double-strand breaks, in cells also given a low, harmless dose of dsRNA against nbs to sensitise the assay
Measured: 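Mitotic index as the number of phospho-histone H3-positive cells in each well following doxorubicin, given as raw counts without normalisation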
Direction: mitotic cells: higher = more cells in mitosis, weaker G2 arrest
Active means: 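Genes are called active only when high mitotic counts were reproduced with independent dsRNAs and mitosis was checked for delay without damage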
Meaning of the calls: active = confirmed in follow-up tests; inactive = not confirmed

| Target gene | DRSC id | mitotic cells, replicate 1 | outcome |
| --- | --- | --- | --- |
| CAH9 | DRSC15963 | 9 | inactive |
| CAH9 | DRSC29677 | 13 | inactive |
| Cals | DRSC17196 | 3 | inactive |
| Cals | DRSC21661 | 6 | inactive |
| Sk2 | DRSC08556 | – | inactive |
| Cdc23 | DRSC02708 | 316 | inactive |
| Pif1A + Pif1B | DRSC14142 | 5 | inactive |
| Pif1A + Pif1B | DRSC14380 | 3 | inactive |
| Pif1A + Pif1B | DRSC14381 | 3 | inactive |
| ND-B18 | DRSC19947 | 9 | inactive |
| ND-B18 | DRSC27676 | 3 | inactive |
| Rab3GAP1 | DRSC00291 | 3 | inactive |
| Rab3GAP1 | DRSC00703 | 8 | inactive |
| Rab3GAP1 | DRSC28988 | 8 | inactive |
| CG42733 | DRSC25375 | 5 | inactive |
| CG15742 | DRSC19708 | 8 | inactive |
| CG15742 | DRSC28195 | 7 | inactive |
| CG31287 | DRSC13138 | 8 | inactive |
| CG6996 | DRSC10758 | 4 | inactive |
| CG15579 | DRSC18067 | 15 | inactive |
| AP-2sigma | DRSC15957 | 8 | inactive |
| CR11700 (retired record) | DRSC17794 | 13 | inactive |
| CR11700 (retired record) | DRSC23384 | 9 | inactive |
| Jon66Ci | DRSC10772 | 4 | inactive |
| Jon66Ci | DRSC26520 | 6 | inactive |
| pen-2 | DRSC05722 | 5 | inactive |
| CG3253 | DRSC04350 | 11 | inactive |
| CG3253 | DRSC29358 | 5 | inactive |
| Rpn8 | DRSC04624 | 37 | inactive |
| Rpn8 | DRSC29897 | 41 | inactive |

Continued; the last 2 above are carried over.
| Target gene | DRSC id | mitotic cells, replicate 1 | outcome |
| --- | --- | --- | --- |
| Rpn8 | DRSC04624 | 37 | inactive |
| Rpn8 | DRSC29897 | 41 | inactive |
| snsl | DRSC00543 | 5 | inactive |
| snsl | DRSC25714 | 13 | inactive |
| CG8516 | DRSC16437 | 5 | inactive |
| CG14641 | DRSC12227 | 5 | inactive |
| CG14641 | DRSC26839 | 2 | inactive |
| CG7745 | DRSC23103 | 8 | inactive |
| CG7745 | DRSC29591 | 2 | inactive |
| MtnC | DRSC22879 | 9 | inactive |
| Pglym87 | DRSC15252 | 4 | inactive |
| Pglym87 | DRSC26066 | 9 | inactive |
| Cyp4d2 | DRSC18458 | 4 | inactive |
| CG1418 | DRSC06447 | 6 | inactive |
| CG1418 | DRSC26354 | 9 | inactive |
| Ppi1 | DRSC15421 | 5 | inactive |
| CG12194 | DRSC00345 | 3 | inactive |
| CG12194 | DRSC24918 | 10 | inactive |
| Su(H) | DRSC03445 | 10 | inactive |
| CG2875 | DRSC18231 | 8 | inactive |
| dlp | DRSC10472 | 6 | inactive |
| dlp | DRSC23803 | 6 | inactive |
| twz | DRSC04069 | 7 | inactive |
| twz | DRSC25832 | 4 | inactive |
| CG7203 | DRSC03026 | 1 | inactive |
| CG7203 | DRSC25657 | 3 | inactive |
| CR33317 | DRSC02653 | 8 | inactive |
| Rcd7 | DRSC10100 | 6 | inactive |
| Alg9 | DRSC14407 | 10 | inactive |
| CatB | DRSC03194 | 5 | inactive |
| CatB | DRSC24516 | 9 | inactive |
| sns | DRSC07687 | 4 | inactive |
| sns | DRSC07688 | 10 | inactive |
| sns | DRSC07689 | 5 | inactive |
| sns | DRSC07691 | 8 | inactive |
| por | DRSC20362 | 9 | inactive |
| por | DRSC29877 | 12 | inactive |
| CG14151 | DRSC10153 | 1 | inactive |
| CG5885 | DRSC02910 | 5 | inactive |
| CG5885 | DRSC28761 | 4 | inactive |
| CG13739 | DRSC23200 | 10 | inactive |
| CG13739 | DRSC28741 | 3 | inactive |
| sphe | DRSC20203 | 6 | inactive |
| CG13738 | DRSC10065 | 7 | inactive |
| CG13738 | DRSC23534 | 8 | inactive |
| Obp50d | DRSC05483 | 6 | inactive |
| CG7408 | DRSC10841 | 5 | inactive |
